{
  "sequences": {"note": "Sequences of proteins named here, by UniProt entry; tags and fusion partners are left off.", "UniProt P67809": "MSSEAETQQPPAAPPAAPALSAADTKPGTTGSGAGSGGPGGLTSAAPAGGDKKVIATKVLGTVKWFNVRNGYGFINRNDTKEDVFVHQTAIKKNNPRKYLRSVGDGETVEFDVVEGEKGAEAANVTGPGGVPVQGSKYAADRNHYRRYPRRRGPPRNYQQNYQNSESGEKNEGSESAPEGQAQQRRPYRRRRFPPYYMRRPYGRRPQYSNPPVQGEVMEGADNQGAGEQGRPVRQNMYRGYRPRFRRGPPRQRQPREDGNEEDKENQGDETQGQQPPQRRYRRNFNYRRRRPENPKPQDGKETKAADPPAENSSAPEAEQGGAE"},
  "source": "paper PMC12357876",
  "biological_target": "T1, TRIM31 (human (endogenous in HT-29 and DLD-1)) (UniProt Q9BZY9)",
  "T1 sequence": "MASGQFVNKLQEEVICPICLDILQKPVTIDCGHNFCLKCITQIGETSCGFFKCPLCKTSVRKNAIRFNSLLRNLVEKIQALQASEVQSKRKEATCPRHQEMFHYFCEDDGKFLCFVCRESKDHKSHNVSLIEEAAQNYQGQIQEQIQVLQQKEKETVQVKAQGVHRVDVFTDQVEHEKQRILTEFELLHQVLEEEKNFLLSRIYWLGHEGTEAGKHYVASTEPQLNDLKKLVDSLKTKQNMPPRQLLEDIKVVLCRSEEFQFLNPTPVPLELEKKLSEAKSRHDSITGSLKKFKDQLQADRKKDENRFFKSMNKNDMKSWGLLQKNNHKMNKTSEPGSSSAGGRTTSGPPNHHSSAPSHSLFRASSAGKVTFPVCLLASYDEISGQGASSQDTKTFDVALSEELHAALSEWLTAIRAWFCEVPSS",
  "experiment": "affinity purification with mass spectrometry; IP with anti-TRIM31 antibody from HT-29 lysate (RIPA buffer, overnight at 4 °C, protein A + G agarose beads), LC-MS/MS of the immunoprecipitate",
  "note": "No constants are given. Whether binding was seen depends on the method and setting. In cells and extracts the contact can be indirect. Here binding means that the protein was enriched with, or labelled near, the bait; the list need not be complete.",
  "data": [
    {"substance": "Y-box binding protein 1 (YBX1) (from UniProt P67809 1-324)", "values": [
      {"measurement": "binding", "value": "binds"}
    ]}
  ]
}
